This is an account of results in US20050272647A1, “Arthrodial cartilage extracellular matrix degradation inhibitor” (priority 2002, published 2005).

The subject of this assay is rabbit knee articular cartilage primary culture cells. In words: PG destruction inhibitory activity in rabbit cartilage primary culture cell (stimulation with retinoic acid). To be noted: Oryctolagus cuniculus, 48 h, read-out: PG degradation inhibition (%).

For orientation: inhibition means the relative decrease from the control value, in per cent.

Turning to `O=C(CCCCCCC(=O)Nc1ccccc1)NO` [SAHA], the inhibition at 0.3 µM came out at 13% and the inhibition at 3 µM was 71%.
